{"sequences": {"note": "By UniProt entry, the sequences of proteins in these tests, tags left out. Where a name states a change or a piece, a line headed by the entry shows the natural chain unless it says otherwise.", "UniProt Q8W4L5": "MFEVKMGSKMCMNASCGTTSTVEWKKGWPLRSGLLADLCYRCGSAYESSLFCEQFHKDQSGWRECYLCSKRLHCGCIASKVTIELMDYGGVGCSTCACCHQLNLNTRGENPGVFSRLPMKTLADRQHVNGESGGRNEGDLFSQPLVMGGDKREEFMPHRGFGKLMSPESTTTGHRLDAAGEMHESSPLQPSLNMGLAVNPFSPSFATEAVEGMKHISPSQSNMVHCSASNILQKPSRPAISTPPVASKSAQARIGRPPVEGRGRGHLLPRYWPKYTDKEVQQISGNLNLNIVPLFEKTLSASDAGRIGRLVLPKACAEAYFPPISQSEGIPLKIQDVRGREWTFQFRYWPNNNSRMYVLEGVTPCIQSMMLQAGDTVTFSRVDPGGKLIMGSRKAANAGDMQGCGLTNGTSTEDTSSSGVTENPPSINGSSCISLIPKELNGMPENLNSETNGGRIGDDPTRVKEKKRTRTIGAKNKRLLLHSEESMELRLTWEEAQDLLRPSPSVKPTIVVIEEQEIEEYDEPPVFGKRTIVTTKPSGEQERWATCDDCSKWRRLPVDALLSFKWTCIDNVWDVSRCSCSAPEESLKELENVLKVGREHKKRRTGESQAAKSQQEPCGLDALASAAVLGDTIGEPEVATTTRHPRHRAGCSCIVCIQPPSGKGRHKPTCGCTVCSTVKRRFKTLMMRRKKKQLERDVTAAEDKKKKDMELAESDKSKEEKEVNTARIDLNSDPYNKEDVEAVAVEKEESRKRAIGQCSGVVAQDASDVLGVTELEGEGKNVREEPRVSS"}, "source": "paper PMC7383879", "about": "“HSI2/VAL1 and HSL1/VAL2 function redundantly to repress DOG1 expression in Arabidopsis seeds and seedlings”", "assay_in_all_cases": "split reporter; BiFC: nEYFP and cEYFP fusions, Agrobacterium GV2260 co-infiltrated into tobacco (N. benthamiana) leaves; YFP fluorescence by confocal microscopy after 2 d", "key": {"[1]": {"target": "T1, HSI2‐LIKE1 (HSL1), BiFC fusion (Arabidopsis thaliana) (UniProt Q5CCK4)", "T1 sequence": "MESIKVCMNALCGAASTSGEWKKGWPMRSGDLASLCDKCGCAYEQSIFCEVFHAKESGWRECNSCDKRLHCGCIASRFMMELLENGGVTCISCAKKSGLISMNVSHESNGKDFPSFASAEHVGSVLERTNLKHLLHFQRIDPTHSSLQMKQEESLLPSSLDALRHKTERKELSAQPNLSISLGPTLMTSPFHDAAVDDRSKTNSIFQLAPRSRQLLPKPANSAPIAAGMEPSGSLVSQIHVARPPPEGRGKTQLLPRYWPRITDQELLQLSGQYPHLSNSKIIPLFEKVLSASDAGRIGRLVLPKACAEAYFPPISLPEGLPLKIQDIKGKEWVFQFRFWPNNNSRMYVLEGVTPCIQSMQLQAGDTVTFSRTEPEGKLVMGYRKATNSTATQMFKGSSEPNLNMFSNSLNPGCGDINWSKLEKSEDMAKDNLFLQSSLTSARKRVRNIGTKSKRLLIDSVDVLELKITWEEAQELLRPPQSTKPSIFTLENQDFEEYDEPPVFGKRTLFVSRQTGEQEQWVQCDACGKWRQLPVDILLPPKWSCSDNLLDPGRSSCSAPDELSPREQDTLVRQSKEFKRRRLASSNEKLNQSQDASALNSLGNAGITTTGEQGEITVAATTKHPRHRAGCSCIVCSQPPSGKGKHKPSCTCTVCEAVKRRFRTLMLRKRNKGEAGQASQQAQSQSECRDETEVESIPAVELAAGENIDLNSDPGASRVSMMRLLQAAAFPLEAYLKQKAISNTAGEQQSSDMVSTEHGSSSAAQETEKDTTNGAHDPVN"}, "[2]": {"target": "B3 domain of HSI2 (B3_(HSI2)), BiFC fusion (Arabidopsis thaliana)"}, "[3]": {"target": "B3 domain of HSL1 (B3_(HSL1)), BiFC fusion (Arabidopsis thaliana)"}}, "note": "These are yes or no findings as the source states them, for the method shown. Binding seen in cells or lysates may run through a third protein. Binding can be weak; no strength is given. Tags and fused reporters may be left off the sequences shown.", "data": [{"molecule": "HSI2mB3 (HSI2 with a mutated B3 domain), BiFC fusion (from UniProt Q8W4L5)", "values": [{"measurement": "binding", "setting": "[1]", "result": "binds"}]}, {"molecule": "LIKE HETEROCHROMATIN PROTEIN1 (LHP1), BiFC fusion (protein, UniProt Q946J8 1-445) MKGASGAVKKKPQVLNEAGEAETAVETVGESRKISGDGGFGSDDGGGGGGGGSGESILREIGDDRPTEDGDEEEEEDEDEDDGGDEEDEEGEGEGGQEERPKLDEGFYEIEAIRRKRVRKGKVQYLIKWRGWPETANTWEPLENLQSIADVIDAFEGSLKPGKPGRKRKRKYAGPHSQMKKKQRLTSTSHDATEKSDSSTSLNNSSLPDIPDPLDLSGSSLLNRDVEAKNAYVSNQVEANSGSVGMARQVRLIDNEKEYDPTLNELRGPVNNSNGAGCSQGGGIGSEGDNVRPNGLLKVYPKELDKNSRFIGAKRRKSGSVKRFKQDGSTSNNHTAPTDQNLTPDLTTLDSFGRIARMGNEYPGVMENCNLSQKTKIEELDITKILKPMSFTASVSDNVQEVLVTFLALRSDGKEALVDNRFLKAHNPHLLIEFYEQHLKYNRTP", "values": [{"measurement": "binding", "setting": "[2]", "result": "binds"}, {"measurement": "binding", "setting": "[3]", "result": "binds"}]}]}
